Source: article PMC9379397
No constants are given. Whether binding was seen depends on the method and setting. In cells and extracts the contact can be indirect. Some results given as binding are weak or reduced against the parent protein; the word gives no strength.

By UniProt entry, the sequences of proteins in these tests, tags left out. Residues count along the entry.
UniProt P11021, residues 19-654: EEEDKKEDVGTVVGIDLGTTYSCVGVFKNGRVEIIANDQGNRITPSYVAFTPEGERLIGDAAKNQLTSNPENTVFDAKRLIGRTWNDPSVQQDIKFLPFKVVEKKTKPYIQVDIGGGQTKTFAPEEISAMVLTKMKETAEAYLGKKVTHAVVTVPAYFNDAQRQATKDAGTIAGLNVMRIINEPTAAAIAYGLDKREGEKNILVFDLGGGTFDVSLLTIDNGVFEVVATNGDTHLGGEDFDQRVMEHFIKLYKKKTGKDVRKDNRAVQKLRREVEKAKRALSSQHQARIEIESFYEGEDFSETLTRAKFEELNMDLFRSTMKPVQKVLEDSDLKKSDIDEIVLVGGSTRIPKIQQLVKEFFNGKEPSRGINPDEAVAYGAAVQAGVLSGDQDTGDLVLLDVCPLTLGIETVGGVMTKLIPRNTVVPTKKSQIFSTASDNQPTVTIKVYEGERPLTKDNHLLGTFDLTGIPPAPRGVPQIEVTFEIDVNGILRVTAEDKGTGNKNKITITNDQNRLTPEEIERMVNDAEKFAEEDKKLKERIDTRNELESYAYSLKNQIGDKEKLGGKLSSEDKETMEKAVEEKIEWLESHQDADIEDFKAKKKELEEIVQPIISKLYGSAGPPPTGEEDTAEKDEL

Biological target: GRP78/Bip (Glucose-Regulated Protein, 78kDa; binding immunoglobulin protein) (human (endogenous in KYSE410 and KYSE450)) (UniProt P11021)
Experiment: co-IP; endogenous proteins in ESCC cell lysates (KYSE410, KYSE450; also Sh-TMTC3 or Sh-NC cells); IP with GRP78/Bip or TMTC3 antibody, Protein A/G beads, 4 C overnight; IP lysis buffer pH 8.0 Tris-HCl 20 mM, NaCl 137 mM, NP40 1%, EDTA 2 mM; Western blot

binding: binds
B1: Transmembrane and tetratricopeptide repeat (TPR) containing protein 3 (TMTC3) (protein, UniProt Q6ZXV5 1-915)
chain: MANINLKEITLIVGVVTACYWNSLFCGFVFDDVSAILDNKDLHPSTPLKTLFQNDFWGTPMSEERSHKSYRPLTVLTFRLNYLLSELKPMSYHLLNMIFHAVVSVIFLKVCKLFLDNKSSVIASLLFAVHPIHTEAVTGVVGRAELLSSIFFLAAFLSYTRSKGPDNSIIWTPIALTVFLVAVATLCKEQGITVVGICCVYEVFIAQGYTLPLLCTTAGQFLRGKGSIPFSMLQTLVKLIVLMFSTLLLVVIRVQVIQSQLPVFTRFDNPAAVSPTPTRQLTFNYLLPVNAWLLLNPSELCCDWTMGTIPLIESLLDIRNLATFTFFCFLGMLGVFSIRYSGDSSKTVLMALCLMALPFIPASNLFFPVGFVVAERVLYVPSMGFCILVAHGWQKISTKSVFKKLSWICLSMVILTHSLKTFHRNWDWESEYTLFMSALKVNKNNAKLWNNVGHALENEKNFERALKYFLQATHVQPDDIGAHMNVGRTYKNLNRTKEAEESYMMAKSLMPQIIPGKKYAARIAPNHLNVYINLANLIRANESRLEEADQLYRQAISMRPDFKQAYISRGELLLKMNKPLKAKEAYLKALELDRNNADLWYNLAIVHIELKEPNEALKKNFNRALELNPKHKLALFNSAIVMQESGEVKLRPEARKRLLSYINEEPLDANGYFNLGMLAMDDKKDNEAEIWMKKAIKLQADFRSALFNLALLYSQTAKELKALPILEELLRYYPDHIKGLILKGDILMNQKKDILGAKKCFERILEMDPSNVQGKHNLCVVYFEEKDLLKAERCLLETLALAPHEEYIQRHLNIVRDKISSSSFIEPIFPTSKISSVEGKKIPTESVKEIRGESRQTQIVKTSDNKSQSKSNKQLGKNGDEETPHKTTKDIKEIEKKRVAALKRLEEIERILNGE
